Measured values from publication PMC8853558.
Results are given in words; binding and its absence hold for the method and conditions named. Some binding calls cover weakened binding; strength is not graded here.

Amino acid sequences for entries named in this document (tags omitted). A change or cut given only in a name is not applied to a line headed by its entry.
UniProt Q15554: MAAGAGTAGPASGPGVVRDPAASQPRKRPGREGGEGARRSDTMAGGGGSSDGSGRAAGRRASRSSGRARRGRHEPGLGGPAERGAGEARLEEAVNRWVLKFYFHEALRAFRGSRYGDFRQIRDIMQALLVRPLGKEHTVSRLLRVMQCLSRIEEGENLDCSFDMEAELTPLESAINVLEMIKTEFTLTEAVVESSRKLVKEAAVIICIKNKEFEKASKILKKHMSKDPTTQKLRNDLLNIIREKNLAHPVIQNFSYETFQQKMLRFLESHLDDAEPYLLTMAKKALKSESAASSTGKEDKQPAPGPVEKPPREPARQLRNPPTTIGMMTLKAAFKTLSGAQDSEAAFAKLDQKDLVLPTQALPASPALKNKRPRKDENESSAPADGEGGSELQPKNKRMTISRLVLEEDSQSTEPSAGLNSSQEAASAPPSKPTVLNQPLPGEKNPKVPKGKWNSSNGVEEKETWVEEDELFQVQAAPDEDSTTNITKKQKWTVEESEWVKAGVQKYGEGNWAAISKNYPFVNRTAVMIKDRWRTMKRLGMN

Key:
[1] = molecular target: T1, POT1-TPP1-TIN2(1-354) shelterin sub-complex (UniProt Q9NUX5); assay: SEC; analytical SEC, Superdex 200 Increase 10/300 GL, 300 mM NaCl, 20 mM Hepes pH 7.5, 1 mM TCEP; 200 pmol POT1-TPP1-TIN2(1-354) combined with 400 pmol TRF2-RAP1, 30 min at 4 °C; each also run alone; both purified
T1 sequence 1: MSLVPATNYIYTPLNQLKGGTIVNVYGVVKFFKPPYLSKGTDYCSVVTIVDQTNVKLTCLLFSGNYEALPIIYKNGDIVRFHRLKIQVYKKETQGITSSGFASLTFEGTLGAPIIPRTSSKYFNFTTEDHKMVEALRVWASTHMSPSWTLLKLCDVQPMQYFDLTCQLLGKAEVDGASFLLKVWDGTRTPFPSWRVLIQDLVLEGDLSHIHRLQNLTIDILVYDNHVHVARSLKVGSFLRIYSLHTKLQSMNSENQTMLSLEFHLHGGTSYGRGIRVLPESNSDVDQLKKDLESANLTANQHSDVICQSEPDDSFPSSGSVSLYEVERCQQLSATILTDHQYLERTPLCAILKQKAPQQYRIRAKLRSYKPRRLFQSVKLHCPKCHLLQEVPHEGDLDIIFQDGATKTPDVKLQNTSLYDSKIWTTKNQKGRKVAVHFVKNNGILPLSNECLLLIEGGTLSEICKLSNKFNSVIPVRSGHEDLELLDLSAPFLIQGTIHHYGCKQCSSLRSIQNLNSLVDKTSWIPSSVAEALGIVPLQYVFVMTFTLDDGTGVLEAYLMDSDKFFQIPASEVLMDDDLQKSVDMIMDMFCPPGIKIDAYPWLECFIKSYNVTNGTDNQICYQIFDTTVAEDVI
T1 sequence 2: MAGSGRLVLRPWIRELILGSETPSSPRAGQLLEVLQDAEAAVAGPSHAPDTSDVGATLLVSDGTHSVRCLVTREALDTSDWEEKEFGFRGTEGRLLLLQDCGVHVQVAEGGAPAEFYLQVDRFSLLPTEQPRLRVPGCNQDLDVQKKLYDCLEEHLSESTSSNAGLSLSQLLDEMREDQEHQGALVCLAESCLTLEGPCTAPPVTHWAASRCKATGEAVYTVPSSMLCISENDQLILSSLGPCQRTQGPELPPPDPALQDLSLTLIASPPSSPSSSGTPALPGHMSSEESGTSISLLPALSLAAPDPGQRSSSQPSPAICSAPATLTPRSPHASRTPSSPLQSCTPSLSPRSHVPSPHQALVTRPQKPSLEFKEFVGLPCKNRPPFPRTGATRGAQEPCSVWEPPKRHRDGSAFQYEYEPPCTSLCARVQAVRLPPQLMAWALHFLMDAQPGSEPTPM
T1 sequence 3: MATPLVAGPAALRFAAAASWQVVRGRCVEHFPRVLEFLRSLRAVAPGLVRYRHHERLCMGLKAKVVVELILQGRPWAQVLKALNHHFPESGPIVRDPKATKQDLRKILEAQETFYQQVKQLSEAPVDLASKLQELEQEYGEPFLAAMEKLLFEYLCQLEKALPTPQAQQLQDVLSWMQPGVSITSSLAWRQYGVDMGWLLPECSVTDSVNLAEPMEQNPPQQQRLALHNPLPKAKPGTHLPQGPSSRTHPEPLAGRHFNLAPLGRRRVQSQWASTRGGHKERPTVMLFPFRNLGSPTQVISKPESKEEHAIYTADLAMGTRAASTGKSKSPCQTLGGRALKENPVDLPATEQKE

[2] = molecular target: T2, TIN2(1-354), C-terminal truncation variant (UniProt Q9BSI4); assay: as above
T2 sequence: T1 sequence 3

binding [1]: binds
binding [2]: binds
Substance: TRF2-RAP1 shelterin sub-complex (from UniProt Q15554 1-542; Q9NYB0 1-399)
